Experimental findings from the supplement of paper PMC12067093, “Discovery and optimisation of a covalent ligand for TRIM25 and its application to targeted protein ubiquitination” (Chemical Science, 2025) are described below.

Amino acid sequences for entries named in this document (tags omitted). A change or cut given only in a name is not applied to a line headed by its entry.
UniProt Q6UX53: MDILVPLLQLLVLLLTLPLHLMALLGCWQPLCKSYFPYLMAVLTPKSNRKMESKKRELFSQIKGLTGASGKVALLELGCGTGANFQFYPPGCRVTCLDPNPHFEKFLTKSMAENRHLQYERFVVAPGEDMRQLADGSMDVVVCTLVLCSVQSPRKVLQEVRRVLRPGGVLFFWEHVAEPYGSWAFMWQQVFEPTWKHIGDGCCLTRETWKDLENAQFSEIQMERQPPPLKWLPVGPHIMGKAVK
UniProt Q9NU22: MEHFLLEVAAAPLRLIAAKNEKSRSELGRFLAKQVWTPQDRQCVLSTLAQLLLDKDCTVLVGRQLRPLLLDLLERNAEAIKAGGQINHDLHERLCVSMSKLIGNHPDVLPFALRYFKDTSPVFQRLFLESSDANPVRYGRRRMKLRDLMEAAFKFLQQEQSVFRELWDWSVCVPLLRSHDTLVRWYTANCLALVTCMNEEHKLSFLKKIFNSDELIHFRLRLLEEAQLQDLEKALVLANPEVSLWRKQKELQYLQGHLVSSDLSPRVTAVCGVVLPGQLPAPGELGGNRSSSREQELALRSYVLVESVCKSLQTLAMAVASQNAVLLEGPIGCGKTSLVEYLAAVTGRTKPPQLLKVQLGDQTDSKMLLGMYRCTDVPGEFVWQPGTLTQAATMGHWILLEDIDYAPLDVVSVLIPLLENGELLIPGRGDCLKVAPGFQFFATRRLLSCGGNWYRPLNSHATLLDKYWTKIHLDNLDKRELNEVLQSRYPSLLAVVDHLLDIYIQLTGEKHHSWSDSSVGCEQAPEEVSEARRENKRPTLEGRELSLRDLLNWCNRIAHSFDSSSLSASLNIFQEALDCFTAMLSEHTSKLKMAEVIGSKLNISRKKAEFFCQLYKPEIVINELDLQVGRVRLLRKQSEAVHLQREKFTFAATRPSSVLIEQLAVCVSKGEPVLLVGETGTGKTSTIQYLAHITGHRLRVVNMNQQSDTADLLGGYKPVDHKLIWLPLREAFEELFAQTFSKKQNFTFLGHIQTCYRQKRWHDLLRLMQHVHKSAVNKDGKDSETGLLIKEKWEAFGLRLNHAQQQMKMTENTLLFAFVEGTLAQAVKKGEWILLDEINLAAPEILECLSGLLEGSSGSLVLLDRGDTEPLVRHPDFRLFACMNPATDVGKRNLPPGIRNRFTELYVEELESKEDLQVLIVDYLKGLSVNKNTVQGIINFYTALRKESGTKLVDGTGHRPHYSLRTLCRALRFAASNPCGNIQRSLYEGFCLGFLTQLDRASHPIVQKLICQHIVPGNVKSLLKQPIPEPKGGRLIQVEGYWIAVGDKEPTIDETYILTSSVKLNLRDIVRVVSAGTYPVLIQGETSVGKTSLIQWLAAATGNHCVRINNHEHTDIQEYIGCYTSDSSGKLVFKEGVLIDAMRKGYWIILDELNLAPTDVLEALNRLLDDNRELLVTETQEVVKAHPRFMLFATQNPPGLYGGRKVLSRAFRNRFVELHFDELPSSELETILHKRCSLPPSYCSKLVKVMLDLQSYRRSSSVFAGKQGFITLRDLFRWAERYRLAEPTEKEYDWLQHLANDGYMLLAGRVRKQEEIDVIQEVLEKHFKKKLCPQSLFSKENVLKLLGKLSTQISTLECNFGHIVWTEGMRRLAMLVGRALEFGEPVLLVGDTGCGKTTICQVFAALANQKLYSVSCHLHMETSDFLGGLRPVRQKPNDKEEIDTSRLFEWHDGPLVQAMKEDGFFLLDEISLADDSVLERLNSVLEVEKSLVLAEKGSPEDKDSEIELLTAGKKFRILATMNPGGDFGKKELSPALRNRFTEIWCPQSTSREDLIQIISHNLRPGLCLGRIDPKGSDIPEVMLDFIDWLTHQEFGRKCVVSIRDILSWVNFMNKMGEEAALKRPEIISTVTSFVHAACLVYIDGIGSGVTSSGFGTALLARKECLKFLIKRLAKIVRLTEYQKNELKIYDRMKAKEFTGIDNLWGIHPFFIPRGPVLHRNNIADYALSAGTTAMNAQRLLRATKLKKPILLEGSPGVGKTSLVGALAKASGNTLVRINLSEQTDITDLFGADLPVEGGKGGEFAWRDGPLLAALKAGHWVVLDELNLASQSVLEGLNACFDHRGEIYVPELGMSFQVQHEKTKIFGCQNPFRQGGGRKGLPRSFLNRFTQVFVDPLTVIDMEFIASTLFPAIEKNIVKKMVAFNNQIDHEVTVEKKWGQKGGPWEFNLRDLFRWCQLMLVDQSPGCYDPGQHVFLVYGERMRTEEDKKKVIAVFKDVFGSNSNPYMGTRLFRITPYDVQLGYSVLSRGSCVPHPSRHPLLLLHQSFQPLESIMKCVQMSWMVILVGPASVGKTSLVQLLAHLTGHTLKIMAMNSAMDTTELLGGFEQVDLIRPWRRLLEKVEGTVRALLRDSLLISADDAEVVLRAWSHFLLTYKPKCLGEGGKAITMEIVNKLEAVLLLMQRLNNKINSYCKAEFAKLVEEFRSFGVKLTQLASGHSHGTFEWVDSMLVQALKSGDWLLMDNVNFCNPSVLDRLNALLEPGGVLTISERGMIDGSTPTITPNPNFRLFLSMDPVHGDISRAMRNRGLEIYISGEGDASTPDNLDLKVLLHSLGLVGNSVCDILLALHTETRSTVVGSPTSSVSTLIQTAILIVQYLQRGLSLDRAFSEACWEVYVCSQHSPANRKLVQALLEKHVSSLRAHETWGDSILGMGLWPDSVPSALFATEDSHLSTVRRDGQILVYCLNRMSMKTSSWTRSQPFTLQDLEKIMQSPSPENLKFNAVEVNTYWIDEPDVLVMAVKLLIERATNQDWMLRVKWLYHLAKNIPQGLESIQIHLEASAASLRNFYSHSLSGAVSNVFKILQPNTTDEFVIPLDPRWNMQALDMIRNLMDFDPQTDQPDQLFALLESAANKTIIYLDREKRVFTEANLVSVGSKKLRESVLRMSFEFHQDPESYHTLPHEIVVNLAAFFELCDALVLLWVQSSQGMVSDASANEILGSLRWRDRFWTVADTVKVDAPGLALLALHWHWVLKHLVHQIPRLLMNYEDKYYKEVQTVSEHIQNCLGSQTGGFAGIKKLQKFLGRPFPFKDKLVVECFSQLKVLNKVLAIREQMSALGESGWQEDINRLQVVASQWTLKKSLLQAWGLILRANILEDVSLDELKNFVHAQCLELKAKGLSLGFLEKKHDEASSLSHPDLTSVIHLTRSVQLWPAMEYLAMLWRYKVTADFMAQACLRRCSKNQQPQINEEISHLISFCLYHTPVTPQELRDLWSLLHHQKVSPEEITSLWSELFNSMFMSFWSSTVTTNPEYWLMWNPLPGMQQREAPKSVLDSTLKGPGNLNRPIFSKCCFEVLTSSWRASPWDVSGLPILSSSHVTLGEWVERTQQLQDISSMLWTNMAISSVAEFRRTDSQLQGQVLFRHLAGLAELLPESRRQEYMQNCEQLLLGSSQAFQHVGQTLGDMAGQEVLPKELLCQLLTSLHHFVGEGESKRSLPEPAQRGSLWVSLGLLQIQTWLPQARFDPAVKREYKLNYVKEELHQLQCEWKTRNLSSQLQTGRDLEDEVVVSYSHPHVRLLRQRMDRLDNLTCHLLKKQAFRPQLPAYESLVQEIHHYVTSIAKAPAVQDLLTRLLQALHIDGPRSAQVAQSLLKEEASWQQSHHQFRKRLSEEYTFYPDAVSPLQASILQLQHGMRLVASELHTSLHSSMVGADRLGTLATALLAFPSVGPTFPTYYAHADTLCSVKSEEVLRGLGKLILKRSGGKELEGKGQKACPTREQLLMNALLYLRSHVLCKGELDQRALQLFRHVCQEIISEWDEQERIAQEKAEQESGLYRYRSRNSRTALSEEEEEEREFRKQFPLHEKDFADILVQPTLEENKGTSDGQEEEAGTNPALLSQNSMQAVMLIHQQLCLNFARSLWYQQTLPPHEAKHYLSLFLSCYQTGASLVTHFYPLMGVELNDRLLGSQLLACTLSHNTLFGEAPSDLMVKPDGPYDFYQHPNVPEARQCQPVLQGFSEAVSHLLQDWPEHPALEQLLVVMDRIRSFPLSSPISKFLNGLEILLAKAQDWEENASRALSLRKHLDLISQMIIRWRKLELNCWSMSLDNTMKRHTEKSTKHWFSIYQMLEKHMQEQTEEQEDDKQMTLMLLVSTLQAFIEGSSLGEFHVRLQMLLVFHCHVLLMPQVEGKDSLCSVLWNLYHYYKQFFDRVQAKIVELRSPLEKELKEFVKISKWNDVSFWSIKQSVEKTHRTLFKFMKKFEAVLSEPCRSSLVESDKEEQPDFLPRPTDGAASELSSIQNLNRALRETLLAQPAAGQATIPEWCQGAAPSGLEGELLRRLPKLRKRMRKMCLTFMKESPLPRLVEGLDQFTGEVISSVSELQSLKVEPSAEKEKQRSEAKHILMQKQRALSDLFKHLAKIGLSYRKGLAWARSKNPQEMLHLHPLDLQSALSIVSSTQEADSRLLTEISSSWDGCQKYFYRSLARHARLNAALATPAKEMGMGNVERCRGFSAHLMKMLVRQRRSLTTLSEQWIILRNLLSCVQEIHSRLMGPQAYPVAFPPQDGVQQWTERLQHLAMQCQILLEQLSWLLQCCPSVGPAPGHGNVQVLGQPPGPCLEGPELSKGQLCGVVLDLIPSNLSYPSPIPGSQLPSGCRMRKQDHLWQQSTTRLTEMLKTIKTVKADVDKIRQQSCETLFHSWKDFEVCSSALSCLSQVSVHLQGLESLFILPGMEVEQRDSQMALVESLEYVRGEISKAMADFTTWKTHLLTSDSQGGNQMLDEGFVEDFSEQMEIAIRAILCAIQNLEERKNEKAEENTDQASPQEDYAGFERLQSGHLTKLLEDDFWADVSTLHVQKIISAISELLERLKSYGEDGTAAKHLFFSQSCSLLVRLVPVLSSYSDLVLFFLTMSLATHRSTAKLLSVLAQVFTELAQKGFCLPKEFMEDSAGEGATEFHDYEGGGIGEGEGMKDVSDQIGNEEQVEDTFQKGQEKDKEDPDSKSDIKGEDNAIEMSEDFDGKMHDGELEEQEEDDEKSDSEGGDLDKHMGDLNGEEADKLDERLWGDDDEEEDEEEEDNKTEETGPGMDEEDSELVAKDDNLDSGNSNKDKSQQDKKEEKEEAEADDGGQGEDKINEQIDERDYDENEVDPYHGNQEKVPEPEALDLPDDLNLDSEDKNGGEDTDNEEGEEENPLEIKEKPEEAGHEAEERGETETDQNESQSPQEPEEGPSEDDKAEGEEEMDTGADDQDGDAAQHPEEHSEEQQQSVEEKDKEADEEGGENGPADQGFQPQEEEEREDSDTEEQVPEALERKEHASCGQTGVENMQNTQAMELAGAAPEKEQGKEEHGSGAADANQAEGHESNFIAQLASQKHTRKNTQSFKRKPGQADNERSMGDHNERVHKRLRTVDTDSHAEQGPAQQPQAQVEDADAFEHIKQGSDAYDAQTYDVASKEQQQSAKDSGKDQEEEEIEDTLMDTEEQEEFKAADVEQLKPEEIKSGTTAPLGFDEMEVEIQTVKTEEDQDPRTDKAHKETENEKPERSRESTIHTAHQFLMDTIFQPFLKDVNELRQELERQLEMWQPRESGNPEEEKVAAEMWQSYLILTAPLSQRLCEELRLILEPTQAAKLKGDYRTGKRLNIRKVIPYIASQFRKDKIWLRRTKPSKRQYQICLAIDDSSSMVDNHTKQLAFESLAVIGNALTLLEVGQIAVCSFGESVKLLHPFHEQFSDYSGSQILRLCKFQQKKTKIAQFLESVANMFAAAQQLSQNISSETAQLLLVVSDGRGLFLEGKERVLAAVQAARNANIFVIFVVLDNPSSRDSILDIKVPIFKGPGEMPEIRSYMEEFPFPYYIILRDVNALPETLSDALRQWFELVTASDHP
UniProt Q9HCC0: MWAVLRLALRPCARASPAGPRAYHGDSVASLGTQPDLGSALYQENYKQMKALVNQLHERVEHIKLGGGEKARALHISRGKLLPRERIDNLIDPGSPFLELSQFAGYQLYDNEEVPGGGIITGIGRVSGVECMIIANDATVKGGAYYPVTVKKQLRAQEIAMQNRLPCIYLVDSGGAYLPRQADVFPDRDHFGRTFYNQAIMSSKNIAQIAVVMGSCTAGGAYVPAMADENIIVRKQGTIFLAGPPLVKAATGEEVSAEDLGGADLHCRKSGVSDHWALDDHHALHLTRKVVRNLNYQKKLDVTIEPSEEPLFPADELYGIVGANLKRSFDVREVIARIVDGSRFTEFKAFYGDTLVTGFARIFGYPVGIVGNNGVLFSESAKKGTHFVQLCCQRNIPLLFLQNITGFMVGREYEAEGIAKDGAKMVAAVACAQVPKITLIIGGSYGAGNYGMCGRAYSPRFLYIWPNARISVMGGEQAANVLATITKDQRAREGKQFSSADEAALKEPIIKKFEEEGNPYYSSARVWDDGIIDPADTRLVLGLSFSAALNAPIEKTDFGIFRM

The other results are listed elsewhere or left out.
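Also: competitive profiling in live THP-1 cells: cysteine peptides tagged with an iodoacetamide desthiobiotin (IA-DTB) probe, intensity after compound treatment relative to DMSO-treated cells.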

Compound in the experiment: Cc1cc(ccc1-c1ccccc1)C(=O)N1CCCN(CC1)C(=O)CCl [compound 10]
The experiment in a line: probe-labelled cysteine peptide fold change vs DMSO (competition) (log2 fold change); higher = less target engagement (more negative = stronger competition). As to conditions: 10 µM; THP-1; incubation time: 4 h.
Take “METTL7B_Q6UX53_203_HIGDGCCLTR (UniProt Q6UX53)”: the “probe-labelled cysteine peptide fold change” value was -0.0981.

For “MDH1_P40925_137_VIVVGNPANTNCLTASK (UniProt P40925)”, the “probe-labelled cysteine peptide fold change” value is -0.101.

“MCM5_P33992_482_CSVLAAANSVFGR (UniProt P33992)”: the “probe-labelled cysteine peptide fold change” value was -0.00634.

“MED1_Q15648_443_EDSPGLLQFEVCPLSESR (UniProt Q15648)”: the “probe-labelled cysteine peptide fold change” value is -0.458.

Take “MDN1_Q9NU22_3308_LDNLTCHLLK (UniProt Q9NU22)”: the “probe-labelled cysteine peptide fold change” value came to 0.0702.

With “MESD_Q14696_180_CADVTLEGQVYPGK (UniProt Q14696)”, the “probe-labelled cysteine peptide fold change” value was -0.0653.

For the target “MCM6_Q14566_351_NLYHNLCTSLFPTIHGNDEVKR (UniProt Q14566)”, the “probe-labelled cysteine peptide fold change” value was found to be 0.0763.

Take “METAP1_P53582_202_SCCTSVNEVICHGIPDR (UniProt P53582)”: the “probe-labelled cysteine peptide fold change” value amounted to 0.0105.

Regarding “MDN1_Q9NU22_1332_KLCPQSLFSK (UniProt Q9NU22)”, the “probe-labelled cysteine peptide fold change” value is -0.363.

With “MCM7_P33993_566_RYIAMCR (UniProt P33993)”, the “probe-labelled cysteine peptide fold change” value was -0.0177.

Consider “MCCC2_Q9HCC0_267_AATGEEVSAEDLGGADLHCRK (UniProt Q9HCC0)”, for which the “probe-labelled cysteine peptide fold change” value is -0.591.

In the case of “MGAT2_Q10469_440_NGGWGDIRDHELCK (UniProt Q10469)”, the “probe-labelled cysteine peptide fold change” value is -0.212.

“MGRN1_O60291_528_AASIENVLQDSSPEHCGR (UniProt O60291)”: the “probe-labelled cysteine peptide fold change” value was -0.518.

Consider “METTL7B_Q6UX53_79+92_VALLELGCGTGANFQFYPPGCR (UniProt Q6UX53)”, for which the “probe-labelled cysteine peptide fold change” value was -0.154.

On to “METAP1_P53582_22_LQCPTCIK (UniProt P53582)”, for which the “probe-labelled cysteine peptide fold change” value amounted to 0.0622.

For the target “MCCC2_Q9HCC0_431_MVAAVACAQVPK (UniProt Q9HCC0)”, the “probe-labelled cysteine peptide fold change” value was -0.115.
